From publication PMC7819943, “Rice protein-binding microarrays: a tool to detect cis-acting elements near promoter regions in rice”
The list shows a part of the results.

Molecular target: T1, OsSMF1 (Oryza sativa, UniProt Q6ZLB0 1-436)
T1 sequence: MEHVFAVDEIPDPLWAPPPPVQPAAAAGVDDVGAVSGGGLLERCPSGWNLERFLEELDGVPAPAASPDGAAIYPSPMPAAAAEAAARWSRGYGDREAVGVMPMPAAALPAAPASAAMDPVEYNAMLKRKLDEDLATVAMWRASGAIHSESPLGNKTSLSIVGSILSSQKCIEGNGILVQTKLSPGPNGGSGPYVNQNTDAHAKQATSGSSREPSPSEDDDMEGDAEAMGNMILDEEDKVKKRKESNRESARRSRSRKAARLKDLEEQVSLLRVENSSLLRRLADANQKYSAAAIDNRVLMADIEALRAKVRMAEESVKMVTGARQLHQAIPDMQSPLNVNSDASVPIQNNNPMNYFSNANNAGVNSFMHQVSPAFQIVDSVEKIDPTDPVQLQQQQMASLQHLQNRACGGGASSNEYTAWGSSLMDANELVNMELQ
Experiment: protein-binding microarray (RPBM); PBS, 2% BSA, 51.3 ng/ul salmon testes DNA, 50 uM zinc acetate, 200 nM TF, 25 C, 1 h; high values mean tight binding
Conditions: protein: recombinant; tags: N-terminal polyhistidine and DsRed monomer fusion (pET32a); chain copies: 2; label: CyDye5-dUTP incorporated in the synthesized complementary strand; 3' TTTTT single-stranded linker to array surface; dsDNA, one strand shown
Outline: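 Binding signal is reported as fluorescence intensity per feature (arbitrary units) from an Axon 4000B scanner. Incubation used 200 nM of each Ni–NTA-purified, N-terminally polyhistidine- and DsRed-fused transcription factor from E. coli BL21-CodonPlus on a double-stranded custom Agilent array for 1 h at 25 °C, with 50 µM zinc acetate in the buffer, followed by washing.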

Row | Sequence | binding signal
1 | CCACACTTACTCAGCCGCCACGTAGACCAAAACCGGGGTCCGGAGTCACCTAGTGCAG | 21500 fluorescence intensity (a.u.)
2 | GCCCGCGCGAAATGACGCTACTACCCTCGTTGCTCTTATCCGGAGTCACCTAGTGCAG | 5480 fluorescence intensity (a.u.)
3 | GCAGCCGCCGCACTGTAGTACGTGGTAGTAGTACTAACCACGGAGTCACCTAGTGCAG | 4180 fluorescence intensity (a.u.)
4 | TTGGTGACAAATCCAGCTCGCTCTTGGGACCGAGAGTCCACGGAGTCACCTAGTGCAG | 27800 fluorescence intensity (a.u.)
5 | GGATTAGGGATGTCATACTGATTCAGCATAAAGTTGAGCGCGGAGTCACCTAGTGCAG | 3970 fluorescence intensity (a.u.)
6 | TAAATTTTAAAATTCAAAGTTTTGCTGTGACTGATGAGTCCGGAGTCACCTAGTGCAG | 3910 fluorescence intensity (a.u.)
7 | CTAAGTACCCTGACATTACCAACGTTCATCTCCACGGCACCGGAGTCACCTAGTGCAG | 3560 fluorescence intensity (a.u.)
8 | CTCAAACGCGCGCGCGAGAGGAGGGGAGGGGTTTGGTTTGCGGAGTCACCTAGTGCAG | 3420 fluorescence intensity (a.u.)
9 | GGACGAAGTCCATGCGGCGCTCGCGCTCCTCCTCCTGCAGCGGAGTCACCTAGTGCAG | 4300 fluorescence intensity (a.u.)
10 | ATTCAACCCAAGCCCAGTGTCACCGCGTACGTCACATTTACGGAGTCACCTAGTGCAG | 4260 fluorescence intensity (a.u.)
11 | CTGGATATGACACATCCTAGTACTACGAAACTGGATATACCGGAGTCACCTAGTGCAG | 5350 fluorescence intensity (a.u.)
12 | TACCGTATCCTCCTCGTCACACCCTACCCTACGCCCGGATCGGAGTCACCTAGTGCAG | 4250 fluorescence intensity (a.u.)
13 | GAAATTTAAAATAAAATCGAATATTGAGTCAGAGTAAACACGGAGTCACCTAGTGCAG | 3800 fluorescence intensity (a.u.)
14 | TGAACTAGGCGGCGGTGGGCCCACCGCTTCCATTCTTCTCCGGAGTCACCTAGTGCAG | 3300 fluorescence intensity (a.u.)
15 | ACAGGGGCAGGGGTCATGTGGTGGAGGTAATCAATTAATCCGGAGTCACCTAGTGCAG | 3660 fluorescence intensity (a.u.)
16 | CATGAGCGCCACATTGCCATGAAATTGATAACATGATTTGCGGAGTCACCTAGTGCAG | 3360 fluorescence intensity (a.u.)
17 | GACTTGCGGCCACGGAGTCAGGGCCGTGCACGTGGAGGTACGGAGTCACCTAGTGCAG | 4910 fluorescence intensity (a.u.)
18 | TTGGCCGGTAACGCGTCATGACTCATGAGCTACTGGACTTCGGAGTCACCTAGTGCAG | 9990 fluorescence intensity (a.u.)
19 | GGAAGATGACGCGTACGCCACACGAACACGATCCGCCCGTCGGAGTCACCTAGTGCAG | 5740 fluorescence intensity (a.u.)
20 | CCACCAAAACCACATGCGACCACGCGAGACCCATGTACCGCGGAGTCACCTAGTGCAG | 3390 fluorescence intensity (a.u.)
21 | CGTTTCAGATTTGTTTACGTCACCATAAGTAAAGTTTTCTCGGAGTCACCTAGTGCAG | 5960 fluorescence intensity (a.u.)

3 records drawn at random from those above, as already listed:
Row | Sequence | binding signal
2 | GCCCGCGCGAAATGACGCTACTACCCTCGTTGCTCTTATCCGGAGTCACCTAGTGCAG | 5480 fluorescence intensity (a.u.)
11 | CTGGATATGACACATCCTAGTACTACGAAACTGGATATACCGGAGTCACCTAGTGCAG | 5350 fluorescence intensity (a.u.)
8 | CTCAAACGCGCGCGCGAGAGGAGGGGAGGGGTTTGGTTTGCGGAGTCACCTAGTGCAG | 3420 fluorescence intensity (a.u.)

The results go on.

Row | Sequence | binding signal
22 | ACTTCCTCAACATGTTAGCATTATTTCGTTCTGCTGTATACGGAGTCACCTAGTGCAG | 20900 fluorescence intensity (a.u.)
23 | GGCGTTCTGCCGCCTGGCGCCGCTCGTCACGTACGAGGACCGGAGTCACCTAGTGCAG | 3350 fluorescence intensity (a.u.)
24 | AGGCCGAAATCCCGGGCTGTTCAGGTGTGTCAGTATATGGCGGAGTCACCTAGTGCAG | 3150 fluorescence intensity (a.u.)
25 | AACTGACTCATACACGGATGACGTACCAAAATACCGGCAACGGAGTCACCTAGTGCAG | 6650 fluorescence intensity (a.u.)
26 | TTAAGTGAAAACATGAGTCTAGCCCTAGCCCAATGTGAAACGGAGTCACCTAGTGCAG | 36300 fluorescence intensity (a.u.)
27 | TACAGGACTATGTGTGCGTGCTACAGTGTTCTGGTCAAATCGGAGTCACCTAGTGCAG | 4360 fluorescence intensity (a.u.)
28 | CAGTTTCTGTCGTAGTGGAGCGGAAACCTGTCACCGAGAGCGGAGTCACCTAGTGCAG | 3240 fluorescence intensity (a.u.)
29 | CTGGACATGTGACACATCATAGTACCATGAATGTAGTACTCGGAGTCACCTAGTGCAG | 4930 fluorescence intensity (a.u.)
30 | GTTTAGGACTTTAACACACGTGGTTGGTTTCACCACAAGACGGAGTCACCTAGTGCAG | 3300 fluorescence intensity (a.u.)
31 | TCTCAGTATAAAAGCCCGCGACATCACGCTATATCTGCTACGGAGTCACCTAGTGCAG | 4050 fluorescence intensity (a.u.)
32 | TCTTGATGATGTGGAGTTTATGGAAACTATGTCTAGTGTTCGGAGTCACCTAGTGCAG | 7560 fluorescence intensity (a.u.)
33 | GTGTGTTATAGGAGACGCATTTATGGGTGTGGGTATGACTCGGAGTCACCTAGTGCAG | 3650 fluorescence intensity (a.u.)
34 | CTGGGGTGCATCGTCAGCCAGCACTTCGAGCCACCTATGCCGGAGTCACCTAGTGCAG | 5100 fluorescence intensity (a.u.)
35 | AATCTCCAACCCTTCACACTCTCCTCTCATCCACGTAAACCGGAGTCACCTAGTGCAG | 4180 fluorescence intensity (a.u.)
36 | TTGCTACCTCATCTATCCCTTCCACCTCACTCTCACTGATCGGAGTCACCTAGTGCAG | 4380 fluorescence intensity (a.u.)
37 | TGAACGAGAAGTGAGCGACTCTCGTTAAACGAACTGCGTTCGGAGTCACCTAGTGCAG | 3580 fluorescence intensity (a.u.)
38 | AAATAATGTGGCCGGACGGGCGGTAGGGTCCTGGCAGCAGCGGAGTCACCTAGTGCAG | 28000 fluorescence intensity (a.u.)
39 | GGTTGGTGCTGTATTGTTTGAGGGGAGGGGATTCCATTTTCGGAGTCACCTAGTGCAG | 5020 fluorescence intensity (a.u.)
40 | GAGACGAGATCTTTCCGTCCAGGTGGCATCAGCGGATTGGCGGAGTCACCTAGTGCAG | 4590 fluorescence intensity (a.u.)
41 | GAATGATGTTTTCGTGAAATCTGATGGAAAGCCGGTAGATCGGAGTCACCTAGTGCAG | 7450 fluorescence intensity (a.u.)
42 | ATATGGAGACAACACCGTACGATGACATTTACCTTGAGCCCGGAGTCACCTAGTGCAG | 3520 fluorescence intensity (a.u.)
